# Experimental data: the supplement of paper PMC12067093, “Discovery and optimisation of a covalent ligand for TRIM25 and its application to targeted protein ubiquitination” (Chemical Science, 2025)
# Protein sequences, listed by entry. Tags and fused reporters are not part of them. Lines headed by an entry give the natural chain unless they say otherwise; changes in a name come on top.
# UniProt Q9P253: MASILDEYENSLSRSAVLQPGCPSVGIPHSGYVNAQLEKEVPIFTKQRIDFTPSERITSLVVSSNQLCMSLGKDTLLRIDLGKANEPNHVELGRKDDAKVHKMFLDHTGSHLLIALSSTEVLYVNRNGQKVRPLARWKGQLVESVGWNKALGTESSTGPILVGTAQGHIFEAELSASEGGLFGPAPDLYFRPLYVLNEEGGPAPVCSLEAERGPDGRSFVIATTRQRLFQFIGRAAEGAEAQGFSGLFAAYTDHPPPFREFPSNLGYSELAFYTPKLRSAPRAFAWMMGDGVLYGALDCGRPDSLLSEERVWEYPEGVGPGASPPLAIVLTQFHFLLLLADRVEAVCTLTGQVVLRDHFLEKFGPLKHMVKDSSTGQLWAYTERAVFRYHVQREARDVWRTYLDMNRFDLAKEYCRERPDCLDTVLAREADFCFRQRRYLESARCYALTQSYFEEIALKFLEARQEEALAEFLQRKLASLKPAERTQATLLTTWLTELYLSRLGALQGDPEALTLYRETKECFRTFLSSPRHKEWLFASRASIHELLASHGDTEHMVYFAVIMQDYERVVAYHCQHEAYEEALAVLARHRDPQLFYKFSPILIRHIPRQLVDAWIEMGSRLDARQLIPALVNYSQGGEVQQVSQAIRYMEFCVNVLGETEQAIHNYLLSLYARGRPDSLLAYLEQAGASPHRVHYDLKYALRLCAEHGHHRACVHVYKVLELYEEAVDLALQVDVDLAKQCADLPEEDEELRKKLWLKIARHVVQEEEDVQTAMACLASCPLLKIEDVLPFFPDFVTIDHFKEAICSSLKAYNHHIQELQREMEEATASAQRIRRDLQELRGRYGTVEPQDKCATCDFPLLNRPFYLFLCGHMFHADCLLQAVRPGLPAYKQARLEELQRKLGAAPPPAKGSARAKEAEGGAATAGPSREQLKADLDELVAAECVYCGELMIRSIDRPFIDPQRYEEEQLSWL
# UniProt Q8N0U8: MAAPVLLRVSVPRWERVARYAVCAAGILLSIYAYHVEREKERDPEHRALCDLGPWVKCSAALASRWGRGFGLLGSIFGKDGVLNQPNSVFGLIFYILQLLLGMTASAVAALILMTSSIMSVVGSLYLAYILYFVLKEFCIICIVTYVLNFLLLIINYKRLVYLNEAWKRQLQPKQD
# UniProt P15498: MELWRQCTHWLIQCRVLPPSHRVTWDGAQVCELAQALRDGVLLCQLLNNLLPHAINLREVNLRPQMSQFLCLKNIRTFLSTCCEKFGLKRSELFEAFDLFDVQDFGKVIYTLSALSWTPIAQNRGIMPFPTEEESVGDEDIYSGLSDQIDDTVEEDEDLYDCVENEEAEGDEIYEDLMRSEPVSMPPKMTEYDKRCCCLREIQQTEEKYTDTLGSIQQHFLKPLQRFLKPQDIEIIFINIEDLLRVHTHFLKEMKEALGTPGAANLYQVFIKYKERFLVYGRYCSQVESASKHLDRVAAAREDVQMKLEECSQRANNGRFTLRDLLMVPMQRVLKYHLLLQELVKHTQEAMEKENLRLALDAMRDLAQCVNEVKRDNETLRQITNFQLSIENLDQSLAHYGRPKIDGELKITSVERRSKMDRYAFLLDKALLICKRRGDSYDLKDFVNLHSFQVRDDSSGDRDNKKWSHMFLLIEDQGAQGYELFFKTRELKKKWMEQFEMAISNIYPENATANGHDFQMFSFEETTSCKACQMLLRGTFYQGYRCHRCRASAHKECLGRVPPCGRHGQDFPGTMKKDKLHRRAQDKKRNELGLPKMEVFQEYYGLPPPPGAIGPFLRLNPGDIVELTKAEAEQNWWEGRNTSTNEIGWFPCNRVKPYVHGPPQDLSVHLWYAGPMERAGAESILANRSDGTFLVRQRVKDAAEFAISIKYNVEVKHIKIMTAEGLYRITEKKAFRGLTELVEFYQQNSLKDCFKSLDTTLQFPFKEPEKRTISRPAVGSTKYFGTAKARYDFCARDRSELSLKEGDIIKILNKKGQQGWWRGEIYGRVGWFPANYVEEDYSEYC
# UniProt Q9UKW4: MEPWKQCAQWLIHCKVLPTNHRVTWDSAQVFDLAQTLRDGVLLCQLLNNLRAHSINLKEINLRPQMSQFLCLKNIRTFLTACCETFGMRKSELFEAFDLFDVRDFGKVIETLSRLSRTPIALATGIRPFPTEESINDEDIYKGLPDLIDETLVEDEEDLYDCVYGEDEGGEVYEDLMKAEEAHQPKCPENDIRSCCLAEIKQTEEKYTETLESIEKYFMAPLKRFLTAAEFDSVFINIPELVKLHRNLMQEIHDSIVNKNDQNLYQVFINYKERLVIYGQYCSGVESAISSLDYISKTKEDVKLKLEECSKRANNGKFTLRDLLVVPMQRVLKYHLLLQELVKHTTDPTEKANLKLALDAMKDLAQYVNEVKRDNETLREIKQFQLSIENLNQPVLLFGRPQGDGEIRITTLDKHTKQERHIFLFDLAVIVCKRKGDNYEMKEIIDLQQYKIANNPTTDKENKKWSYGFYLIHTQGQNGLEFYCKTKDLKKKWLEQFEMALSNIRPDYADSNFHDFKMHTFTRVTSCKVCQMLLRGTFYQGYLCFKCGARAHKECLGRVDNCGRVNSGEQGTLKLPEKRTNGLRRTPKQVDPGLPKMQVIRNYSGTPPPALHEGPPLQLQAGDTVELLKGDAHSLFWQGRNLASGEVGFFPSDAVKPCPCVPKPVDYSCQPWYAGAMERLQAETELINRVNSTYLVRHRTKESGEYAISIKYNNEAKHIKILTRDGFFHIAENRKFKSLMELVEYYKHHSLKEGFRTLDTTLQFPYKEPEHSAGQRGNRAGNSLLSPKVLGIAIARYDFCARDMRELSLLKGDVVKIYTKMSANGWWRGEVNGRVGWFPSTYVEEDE
# UniProt Q9Y5J1: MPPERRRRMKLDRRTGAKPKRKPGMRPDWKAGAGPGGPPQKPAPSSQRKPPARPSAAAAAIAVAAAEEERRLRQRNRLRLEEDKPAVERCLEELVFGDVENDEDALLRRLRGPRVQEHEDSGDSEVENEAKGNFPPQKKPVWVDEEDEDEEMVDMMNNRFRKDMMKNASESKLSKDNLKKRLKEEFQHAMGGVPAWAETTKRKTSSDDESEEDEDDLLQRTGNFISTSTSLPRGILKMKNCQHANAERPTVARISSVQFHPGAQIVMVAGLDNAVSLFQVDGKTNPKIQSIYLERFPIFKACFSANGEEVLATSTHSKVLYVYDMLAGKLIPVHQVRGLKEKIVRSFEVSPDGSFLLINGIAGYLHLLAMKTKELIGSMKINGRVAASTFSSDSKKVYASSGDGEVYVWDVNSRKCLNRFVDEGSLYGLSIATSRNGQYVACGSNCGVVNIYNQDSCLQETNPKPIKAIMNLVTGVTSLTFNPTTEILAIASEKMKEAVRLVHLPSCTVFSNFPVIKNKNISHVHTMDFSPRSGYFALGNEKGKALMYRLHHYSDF
# UniProt Q08AM6: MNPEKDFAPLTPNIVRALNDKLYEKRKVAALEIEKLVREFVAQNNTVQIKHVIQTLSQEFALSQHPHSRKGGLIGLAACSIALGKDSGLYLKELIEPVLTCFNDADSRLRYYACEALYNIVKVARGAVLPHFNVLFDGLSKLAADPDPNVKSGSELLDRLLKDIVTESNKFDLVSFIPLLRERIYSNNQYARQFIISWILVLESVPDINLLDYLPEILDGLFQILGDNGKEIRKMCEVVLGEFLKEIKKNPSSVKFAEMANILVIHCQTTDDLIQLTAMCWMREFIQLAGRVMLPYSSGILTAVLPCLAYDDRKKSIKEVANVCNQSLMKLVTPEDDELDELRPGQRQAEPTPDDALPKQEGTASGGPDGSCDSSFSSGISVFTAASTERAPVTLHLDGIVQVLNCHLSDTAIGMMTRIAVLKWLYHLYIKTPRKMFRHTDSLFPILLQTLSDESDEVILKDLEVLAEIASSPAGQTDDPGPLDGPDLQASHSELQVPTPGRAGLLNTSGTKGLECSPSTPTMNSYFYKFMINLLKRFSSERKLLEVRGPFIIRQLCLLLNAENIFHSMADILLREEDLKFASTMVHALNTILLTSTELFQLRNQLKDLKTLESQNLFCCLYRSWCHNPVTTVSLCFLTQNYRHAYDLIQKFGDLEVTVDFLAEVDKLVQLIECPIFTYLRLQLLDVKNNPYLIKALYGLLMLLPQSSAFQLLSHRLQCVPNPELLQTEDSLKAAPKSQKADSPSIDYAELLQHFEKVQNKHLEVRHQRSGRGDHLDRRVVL
# UniProt Q9NP79: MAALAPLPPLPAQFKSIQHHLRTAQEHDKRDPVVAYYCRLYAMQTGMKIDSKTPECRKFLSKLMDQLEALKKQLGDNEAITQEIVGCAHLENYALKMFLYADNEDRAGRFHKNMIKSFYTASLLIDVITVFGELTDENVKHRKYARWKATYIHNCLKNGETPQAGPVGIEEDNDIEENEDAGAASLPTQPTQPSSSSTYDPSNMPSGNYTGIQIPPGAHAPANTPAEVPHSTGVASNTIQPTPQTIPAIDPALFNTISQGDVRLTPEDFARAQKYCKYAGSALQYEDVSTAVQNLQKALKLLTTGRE
# UniProt P08670, whole entry, looked up: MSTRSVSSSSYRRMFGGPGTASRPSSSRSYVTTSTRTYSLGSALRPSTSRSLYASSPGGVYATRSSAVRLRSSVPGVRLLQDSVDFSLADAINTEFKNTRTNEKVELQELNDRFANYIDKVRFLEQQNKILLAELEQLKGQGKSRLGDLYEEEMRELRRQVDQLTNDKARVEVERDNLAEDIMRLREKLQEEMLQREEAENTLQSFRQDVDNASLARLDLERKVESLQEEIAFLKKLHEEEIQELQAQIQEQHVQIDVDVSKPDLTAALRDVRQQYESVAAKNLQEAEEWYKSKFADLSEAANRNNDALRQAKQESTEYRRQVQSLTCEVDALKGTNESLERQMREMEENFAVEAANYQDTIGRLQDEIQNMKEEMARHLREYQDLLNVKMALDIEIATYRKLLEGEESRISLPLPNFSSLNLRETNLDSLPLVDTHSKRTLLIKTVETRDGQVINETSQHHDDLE
# UniProt Q9UK41: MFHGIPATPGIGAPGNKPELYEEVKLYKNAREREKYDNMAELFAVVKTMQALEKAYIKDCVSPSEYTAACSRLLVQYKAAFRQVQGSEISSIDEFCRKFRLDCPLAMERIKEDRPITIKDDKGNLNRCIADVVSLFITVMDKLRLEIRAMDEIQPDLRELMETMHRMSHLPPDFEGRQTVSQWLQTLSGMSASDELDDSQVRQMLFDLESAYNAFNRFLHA
# UniProt P26640: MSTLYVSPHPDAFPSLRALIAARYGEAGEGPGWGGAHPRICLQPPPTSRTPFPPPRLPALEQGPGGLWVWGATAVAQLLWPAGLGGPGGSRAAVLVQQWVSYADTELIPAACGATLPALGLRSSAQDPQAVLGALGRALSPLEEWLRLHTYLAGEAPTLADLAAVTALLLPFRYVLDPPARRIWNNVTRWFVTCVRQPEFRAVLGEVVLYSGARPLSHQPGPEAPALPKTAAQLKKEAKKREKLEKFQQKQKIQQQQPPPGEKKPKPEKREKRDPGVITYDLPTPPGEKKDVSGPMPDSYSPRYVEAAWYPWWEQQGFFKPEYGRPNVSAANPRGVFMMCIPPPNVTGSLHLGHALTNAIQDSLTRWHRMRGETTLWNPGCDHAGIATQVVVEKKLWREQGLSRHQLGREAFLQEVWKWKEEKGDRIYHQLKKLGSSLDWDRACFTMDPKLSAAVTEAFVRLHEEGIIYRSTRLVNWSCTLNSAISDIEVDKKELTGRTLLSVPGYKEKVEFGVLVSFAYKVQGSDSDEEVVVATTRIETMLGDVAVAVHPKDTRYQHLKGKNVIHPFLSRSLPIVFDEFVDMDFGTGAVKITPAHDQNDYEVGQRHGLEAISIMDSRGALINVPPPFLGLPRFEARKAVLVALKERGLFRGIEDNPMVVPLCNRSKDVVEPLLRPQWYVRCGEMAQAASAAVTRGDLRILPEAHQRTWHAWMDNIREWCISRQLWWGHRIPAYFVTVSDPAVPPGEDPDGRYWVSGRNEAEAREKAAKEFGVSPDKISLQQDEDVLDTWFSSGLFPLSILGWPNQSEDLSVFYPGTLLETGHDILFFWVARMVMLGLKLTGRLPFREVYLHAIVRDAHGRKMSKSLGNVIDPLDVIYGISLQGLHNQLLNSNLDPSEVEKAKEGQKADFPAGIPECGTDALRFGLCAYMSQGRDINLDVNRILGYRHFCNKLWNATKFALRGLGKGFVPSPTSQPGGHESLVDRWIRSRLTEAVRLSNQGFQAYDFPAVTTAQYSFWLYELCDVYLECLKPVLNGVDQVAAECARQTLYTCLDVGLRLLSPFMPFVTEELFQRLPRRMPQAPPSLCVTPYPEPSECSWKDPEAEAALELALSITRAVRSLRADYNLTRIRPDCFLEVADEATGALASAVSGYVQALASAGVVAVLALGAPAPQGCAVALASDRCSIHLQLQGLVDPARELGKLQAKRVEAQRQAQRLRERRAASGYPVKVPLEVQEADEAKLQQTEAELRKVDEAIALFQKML
# This is one part of the list.
# Compound: CC1Cc2ccccc2N1C(=O)C1CCCN(C1)C(=O)CCl (mixture of isomers) [TRIM25 ligand 11 (diastereomer mixture)]
# Test: probe-labelled cysteine peptide fold change vs DMSO (competition) (log2 fold change); higher = less target engagement (more negative = stronger competition)
# Conditions: 10 µM; THP-1; incubation time: 4 h
# 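Further: competitive chemoproteomic profiling in live THP-1 cells with an iodoacetamide desthiobiotin (IA-DTB) probe, comparing probe-labelled peptide intensities in compound-treated cells against DMSO-treated controls.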
row,Target,probe-labelled cysteine peptide fold change
1,USP9Y_O00507_1568_NAGATCYMNSVIQQLYMIPSIR (UniProt O00507),0.0032
2,VCL_P18206_422_IAELCDDPK (UniProt P18206),0.254
3,USP8_P40818_939_STVQCLTCHKK (UniProt P40818),-0.127
4,VPS18_Q9P253_780_HVVQEEEDVQTAMACLASCPLLK (UniProt Q9P253),-0.173
5,VPS13C_Q709C8_2395_SCLNVFNNLAK (UniProt Q709C8),0.0796
6,VPS29_Q9UBQ0_36_IQHILCTGNLCTK (UniProt Q9UBQ0),-0.0615
7,USP9Y_O00507_1773_GDLLEGANAYHCEK (UniProt O00507),0.0156
8,VPS35_Q96QK1_653_TQCALAASK (UniProt Q96QK1),0.0283
9,VCPIP1_Q96JH7_517_NYSFPLNNLVCSYDSVK (UniProt Q96JH7),-0.0371
10,USP9Y_O00507_148_CIINNTHR (UniProt O00507),0.0958
11,VKORC1L1_Q8N0U8_58_CSAALASR (UniProt Q8N0U8),-0.0906
12,VAV1_P15498_71_EVNLRPQMSQFLCLK (UniProt P15498),-0.0166
13,VIRMA_Q69YN4_781_CTASEETDHSDLLGTLHNLYLITFNPVGR (UniProt Q69YN4),0.281
14,VARS2_Q5ST30_549_QLWWGHQIPAYLVVEDHAQGEEDCWVVGR (UniProt Q5ST30),0.175
15,VAMP7_P51809_56_LTYSHGNYLFHYICQDR (UniProt P51809),0.291
16,WAC_Q9BTA9_615_VCEIQATLR (UniProt Q9BTA9),0.122
17,VCP_P55072_184_VVETDPSPYCIVAPDTVIHCEGEPIKR (UniProt P55072),0.211
18,VPS18_Q9P253_741_QCADLPEEDEELR (UniProt Q9P253),0.178
19,VAV3_Q9UKW4_187_CPENDIR (UniProt Q9UKW4),0.0572
20,VAV2_P52735_749_KFDSLLELVEYYQCHSLK (UniProt P52735),0.113

row,Target,probe-labelled cysteine peptide fold change
1,UTP18_Q9Y5J1_241_NCQHANAERPTVAR (UniProt Q9Y5J1),-0.0588
2,VPS16_Q9H269_36_EELRDCLVAAAPYGGPIALLR (UniProt Q9H269),0.37
3,VAC14_Q08AM6_101_ELIEPVLTCFNDADSR (UniProt Q08AM6),-0.258
4,VPS13C_Q709C8_1617_CNIADIK (UniProt Q709C8),0.0684
5,VTA1_Q9NP79_87_QLGDNEAITQEIVGCAHLENYALK (UniProt Q9NP79),0.00313
6,UTP18_Q9Y5J1_507_LVHLPSCTVFSNFPVIK (UniProt Q9Y5J1),-0.0804
7,USP9Y_O00507_541_ILDYSCSQDR (UniProt O00507),0.355
8,VIM_P08670_328_QVQSLTCEVDALK (UniProt P08670),-0.0632
9,VPS16_Q9H269_763_KSPIGYLPFVEICMK (UniProt Q9H269),-0.373
10,VPS28_Q9UK41_128_CIADVVSLFITVMDK (UniProt Q9UK41),-0.0669
11,VPS53_Q5VIR6-4_685_CKPISMVGAEQLLLDTHSLK (UniProt Q5VIR6),-0.0744
12,VPS41_P49754_638_DSTHCPLEK (UniProt P49754),0.227
13,VPS33B_Q9H267_259_CGSVDFGPEVTSSDK (UniProt Q9H267),0.178
14,UTP15_Q8TED0_85_DTAYCATFR (UniProt Q8TED0),0.046
15,UTP23_Q9BRU9_103_NAVSGSECLLSMVEEGNPHHYFVATQDQNLSVK (UniProt Q9BRU9),-0.0133
16,VCP_P55072_174+184_VVETDPSPYCIVAPDTVIHCEGEPIKR (UniProt P55072),-0.0334
17,VPS13B_Q7Z7G8_868_CASGTMGSIK (UniProt Q7Z7G8),-0.0295
18,VARS_P26640_1185_CSIHLQLQGLVDPAR (UniProt P26640),-0.0311
19,VCPIP1_Q96JH7_207+219_SQECLIPVHVDGDGHCLVHAVSR (UniProt Q96JH7),-0.42

# Same assay, conditions: 50 µM; THP-1; incubation time: 4 h
row,Target,probe-labelled cysteine peptide fold change
1,USP9Y_O00507_1568_NAGATCYMNSVIQQLYMIPSIR (UniProt O00507),-0.0424
2,VCL_P18206_422_IAELCDDPK (UniProt P18206),0.233
3,USP8_P40818_939_STVQCLTCHKK (UniProt P40818),-0.0772
4,VPS18_Q9P253_780_HVVQEEEDVQTAMACLASCPLLK (UniProt Q9P253),0.078
5,VPS13C_Q709C8_2395_SCLNVFNNLAK (UniProt Q709C8),0.107
6,VPS29_Q9UBQ0_36_IQHILCTGNLCTK (UniProt Q9UBQ0),-0.165
7,USP9Y_O00507_1773_GDLLEGANAYHCEK (UniProt O00507),0.00717
8,VPS35_Q96QK1_653_TQCALAASK (UniProt Q96QK1),-0.00488
9,VCPIP1_Q96JH7_517_NYSFPLNNLVCSYDSVK (UniProt Q96JH7),-0.113
10,USP9Y_O00507_148_CIINNTHR (UniProt O00507),0.321
11,VKORC1L1_Q8N0U8_58_CSAALASR (UniProt Q8N0U8),0.0327
12,VAV1_P15498_71_EVNLRPQMSQFLCLK (UniProt P15498),0.0874
13,VIRMA_Q69YN4_781_CTASEETDHSDLLGTLHNLYLITFNPVGR (UniProt Q69YN4),0.101
14,VARS2_Q5ST30_549_QLWWGHQIPAYLVVEDHAQGEEDCWVVGR (UniProt Q5ST30),0.165
15,VAMP7_P51809_56_LTYSHGNYLFHYICQDR (UniProt P51809),0.218
16,WAC_Q9BTA9_615_VCEIQATLR (UniProt Q9BTA9),0.275
17,VCP_P55072_184_VVETDPSPYCIVAPDTVIHCEGEPIKR (UniProt P55072),-0.0862
18,VPS18_Q9P253_741_QCADLPEEDEELR (UniProt Q9P253),0.183
19,VAV3_Q9UKW4_187_CPENDIR (UniProt Q9UKW4),-0.0205
20,VAV2_P52735_749_KFDSLLELVEYYQCHSLK (UniProt P52735),-0.0382

row,Target,probe-labelled cysteine peptide fold change
1,UTP18_Q9Y5J1_241_NCQHANAERPTVAR (UniProt Q9Y5J1),-0.0636
2,VPS16_Q9H269_36_EELRDCLVAAAPYGGPIALLR (UniProt Q9H269),0.395
3,VAC14_Q08AM6_101_ELIEPVLTCFNDADSR (UniProt Q08AM6),-0.33
4,VPS13C_Q709C8_1617_CNIADIK (UniProt Q709C8),0.095
5,VTA1_Q9NP79_87_QLGDNEAITQEIVGCAHLENYALK (UniProt Q9NP79),0.0507
6,UTP18_Q9Y5J1_507_LVHLPSCTVFSNFPVIK (UniProt Q9Y5J1),-0.0221
7,USP9Y_O00507_541_ILDYSCSQDR (UniProt O00507),0.183
8,VIM_P08670_328_QVQSLTCEVDALK (UniProt P08670),-0.207
9,VPS16_Q9H269_763_KSPIGYLPFVEICMK (UniProt Q9H269),-0.281
10,VPS28_Q9UK41_128_CIADVVSLFITVMDK (UniProt Q9UK41),-0.0794
11,VPS53_Q5VIR6-4_685_CKPISMVGAEQLLLDTHSLK (UniProt Q5VIR6),0.0731
12,VPS41_P49754_638_DSTHCPLEK (UniProt P49754),0.214
13,VPS33B_Q9H267_259_CGSVDFGPEVTSSDK (UniProt Q9H267),0.27
14,UTP15_Q8TED0_85_DTAYCATFR (UniProt Q8TED0),0.0662
15,UTP23_Q9BRU9_103_NAVSGSECLLSMVEEGNPHHYFVATQDQNLSVK (UniProt Q9BRU9),-0.153
16,VCP_P55072_174+184_VVETDPSPYCIVAPDTVIHCEGEPIKR (UniProt P55072),-0.207
17,VPS13B_Q7Z7G8_868_CASGTMGSIK (UniProt Q7Z7G8),-0.0154
18,VARS_P26640_1185_CSIHLQLQGLVDPAR (UniProt P26640),-0.151
19,VCPIP1_Q96JH7_207+219_SQECLIPVHVDGDGHCLVHAVSR (UniProt Q96JH7),-1.06
